The list does not hold the whole screen: it gathers tests that were run many times, whatever their T/C, doses with no T/C, and many T/C values between a quarter and a half above the control. Further doses and runs are listed elsewhere. T/C is the treated group as % of the vehicle group. Some entries give survivors of the animals treated and no T/C: the source files T/C as zero there, which appears to mark a toxic dose or a test without result, not a measured value. Some doses without a T/C left all or most animals alive at the check, yet need not have been tolerated: survival well below the control is almost never listed, so the zero probably covers shortened survival too. Counts of survivors are from the toxicity check (mostly the fifth day) where no day follows; animals may have died later. Schedules are NCI's codes, read here as Q, the interval in days (D) or hours (H), X, the number of doses. Some doses were run more than once; their values stand side by side, smallest first. Where survival is the endpoint, the PubChem record calls one and a half times the control and up active, and a quarter to a half above the control has no call in these data; cut-offs in other NCI protocols can differ. Some schedule codes hold Z or #, which are not explained here. Some T/C values are followed by the survivors on the day toxicity was checked, most often the fifth; where none is given, no animal had died by that day.
Test system: BDF1 mice, P388 leukemia ip, median survival T/C
Test: NCI In Vivo Anticancer Drug Screen. Data for tumor model P388 Leukemia (intraperitoneal) in B6D2F1 (BDF1) mice
Settings: T/C endpoint: median survival time, higher T/C = longer survival
How it was run: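 Antitumour effect was judged in vivo: survival in drug-treated mice, normalised to that of vehicle-dosed controls, gives the reported T/C.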

[1] = dose: 100.0 mg/kg/injection, schedule: Q01DX009 (ip), vehicle: saline with Tween-80
[2] = dose: 400.0 mg/kg/injection, schedule: Q04DX003 (ip), vehicle: water
[3] = dose: 200.0 mg/kg/injection, schedule: Q01DX009 (ip), vehicle: Klucel (hydroxypropylcellulose) (HPC)
[4] = dose: 100.0 mg/kg/injection, schedule: Q01DX009 (ip), vehicle: saline
[5] = dose: 50.0 mg/kg/injection, schedule: Q01DX009 (ip), vehicle: saline with Tween-80
[6] = dose: 400.0 mg/kg/injection, schedule: Q01DX009 (ip), vehicle: Klucel (hydroxypropylcellulose) (HPC)

SMILES: CN1CCN(Cc2nc3cccc4c3c([n+]2[O-])-c2ccccc2-4)CC1
- survivor count (dose: 50.0 mg/kg/injection, schedule: Q03HX008 (oral), vehicle: saline with Tween-80): 3 of 10
- survivor count (dose: 50.0 mg/kg/injection, schedule: Q03HX024 (oral), vehicle: saline with Tween-80): 6 of 10
- survivor count (dose: 50.0 mg/kg/injection, schedule: Q03HX072 (oral), vehicle: saline with Tween-80): 4 of 10
- T/C (dose: 60.0 mg/kg/injection, schedule: Q03HX008 (ip), vehicle: saline with Tween-80): 125 % of control
- T/C (dose: 60.0 mg/kg/injection, schedule: Q03HX024 (ip), vehicle: saline with Tween-80): 136 % of control
- T/C (dose: 60.0 mg/kg/injection, schedule: Q06HX032 (ip), vehicle: saline with Tween-80): 142 % of control
- T/C (dose: 80.0 mg/kg/injection, schedule: Q03HX024 (ip), vehicle: saline with Tween-80): 140 % of control [9 of 10 alive]
- T/C (dose: 80.0 mg/kg/injection, schedule: Q06HX032 (ip), vehicle: saline with Tween-80): 148 % of control
- T/C [1]: 127 % of control [8 of 10 alive]
- survivor count (dose: 100.0 mg/kg/injection, schedule: Q03HX008 (ip), vehicle: saline with Tween-80): 6 of 10
- survivor count (dose: 100.0 mg/kg/injection, schedule: Q03HX024 (oral), vehicle: saline with Tween-80): 5 of 10
- survivor count (dose: 100.0 mg/kg/injection, schedule: Q03HX072 (oral), vehicle: saline with Tween-80): 6 of 10
- survivor count (dose: 100.0 mg/kg/injection, schedule: Q06HX032 (ip), vehicle: saline with Tween-80): 5 of 10
- T/C (dose: 125.0 mg/kg/injection, schedule: Q01DX009 (ip), vehicle: saline with Tween-80): 136 % of control
- survivor count (dose: 150.0 mg/kg/injection, schedule: Q01DX009 (ip), vehicle: saline with Tween-80): 6 of 10
- T/C (dose: 150.0 mg/kg/injection, schedule: Q01DX Z (ip), vehicle: saline): 139 % of control
- T/C (dose: 150.0 mg/kg/injection, schedule: Q03HX008 (oral), vehicle: saline with Tween-80): 127 % of control [9 of 10 alive]
- T/C (dose: 150.0 mg/kg/injection, schedule: Q03HX024 (oral), vehicle: saline with Tween-80): 139 % of control [8 of 10 alive]
- survivor count (dose: 150.0 mg/kg/injection, schedule: Q03HX072 (oral), vehicle: saline with Tween-80): 5 of 10
- T/C (dose: 150.0 mg/kg/injection, schedule: Q08HX027 (oral), vehicle: saline with Tween-80): 134 % of control
- survivor count (dose: 200.0 mg/kg/injection, schedule: Q03HX008 (oral), vehicle: saline with Tween-80): 1 of 10
- survivor count (dose: 200.0 mg/kg/injection, schedule: Q03HX072 (oral), vehicle: saline with Tween-80): 1 of 10

SMILES: O=Cc1ccc(/C=C2\NC(=O)NC2=O)cc1
- T/C [2]: 130 % of control

SMILES: COC(OC)c1[nH]c(=S)[nH]c(=O)c1Cc1cccc(Cl)c1
- T/C [3]: 127 % of control

SMILES: CC(C)([NH-])CO.CC(C)([NH-])CO.[Cl][Cd][Cl]
- survivor count (dose: 20.0 mg/kg/injection, schedule: Q01DX009 (ip), vehicle: saline): 1 of 6
- survivor count (dose: 25.0 mg/kg/injection, schedule: Q04DX003 (ip), vehicle: saline sonified): 0 of 6
- survivor count (dose: 40.0 mg/kg/injection, schedule: Q04DX003 (ip), vehicle: saline): 0 of 6

SMILES: O=C(Nc1ccccc1)Nc1nncs1
- survivor count (dose: 25.0 mg/kg/injection, schedule: Q01DX009 (ip), vehicle: other): 6 of 6
- survivor count (dose: 50.0 mg/kg/injection, schedule: Q01DX009 (ip), vehicle: other): 6 of 6
- survivor count (dose: 100.0 mg/kg/injection, schedule: Q01DX009 (ip), vehicle: other): 6 of 6
- survivor count (dose: 200.0 mg/kg/injection, schedule: Q01DX009 (ip), vehicle: other): 5 of 6
- survivor count (dose: 400.0 mg/kg/injection, schedule: Q01DX009 (ip), vehicle: other): 6 of 6

SMILES: CCOC(=O)CCN1CCCCCC1
- survivor count [4]: 5 of 6
- survivor count (dose: 400.0 mg/kg/injection, schedule: Q01DX009 (ip), vehicle: saline): 6 of 6

SMILES: O=C(CNC(=O)Nc1ccc(C2=NCCN2)cc1)Nc1ccc(C2=NCCN2)cc1
- T/C [5]: 125 % of control

SMILES: O=[N+]([O-])/C=C\c1ccc2c(c1)OCO2
- T/C (dose: 25.0 mg/kg/injection, schedule: Q01DX009 (ip), vehicle: Klucel (hydroxypropylcellulose) (HPC)): 131 % of control
- T/C (dose: 50.0 mg/kg/injection, schedule: Q01DX009 (ip), vehicle: Klucel (hydroxypropylcellulose) (HPC)): 125, 127, 138 % of control
- survivor count (dose: 100.0 mg/kg/injection, schedule: Q01DX009 (ip), vehicle: Klucel (hydroxypropylcellulose) (HPC)): 5 of 6
- survivor count [3]: 2 of 6
- survivor count [6]: 0 of 6
- survivor count (dose: 400.0 mg/kg/injection, schedule: Q04DX003 (ip), vehicle: Klucel (hydroxypropylcellulose) (HPC)): 1 of 6

SMILES: COc1ccc(CNCCNCc2ccc(OC)cc2)cc1
- survivor count (dose: 50.0 mg/kg/injection, schedule: Q01DX009 (ip), vehicle: water): 6 of 6
- survivor count (dose: 200.0 mg/kg/injection, schedule: Q01DX009 (ip), vehicle: water): 5 of 6
- survivor count (dose: 200.0 mg/kg/injection, schedule: Q04DX003 (ip), vehicle: water): 6 of 6
- survivor count [2]: 3 of 6

SMILES: CC(C)=CC(=O)OCC1CC[N+](C)(C)C1 (centres undefined)
- T/C (dose: 6.25 mg/kg/injection, schedule: Q01DX009 (ip), vehicle: saline): 128 % of control
- survivor count (dose: 12.5 mg/kg/injection, schedule: Q01DX009 (ip), vehicle: saline): 4 of 4
- survivor count [4]: 0 of 4
- survivor count (dose: 200.0 mg/kg/injection, schedule: Q01DX001 (ip), vehicle: saline): 1 of 6
- survivor count (dose: 400.0 mg/kg/injection, schedule: Q01DX001 (ip), vehicle: saline): 0 of 6
- survivor count (dose: 800.0 mg/kg/injection, schedule: Q01DX001 (ip), vehicle: saline): 0 of 6
- survivor count (dose: 1600.0 mg/kg/injection, schedule: Q01DX001 (ip), vehicle: saline): 0 of 6

SMILES: COc1cccc2c1C(=O)c1c(O)c3c(c(O)c1C2=O)CC(O)(C(=O)C(C)C)CC3OC1CC(N)C(O)C(C)O1 (centres undefined)
- survivor count (dose: 150.0 mg/kg/injection, schedule: Q04DX003 (ip), vehicle: water): 0 of 3

SMILES: COc1cc(/C=C/[N+](=O)[O-])c(OC)cc1Br
- survivor count [5]: 6 of 6
- survivor count [1]: 2 of 6
- survivor count (dose: 200.0 mg/kg/injection, schedule: Q01DX009 (ip), vehicle: saline with Tween-80): 0 of 6

SMILES: CSCS(=O)C[C@H](CO)NC(=O)/C=C/c1c(C)[nH]c(=O)[nH]c1=O (some centres undefined)
- T/C (dose: 1.44 mg/kg/injection, schedule: Q04DX003 (ip), vehicle: saline): 144 % of control
- T/C (dose: 1.56 mg/kg/injection, schedule: Q04DX002 (ip), vehicle: Klucel (hydroxypropylcellulose) (HPC)): 125 % of control
- T/C (dose: 2.0 mg/kg/injection, schedule: Q04DX003 (ip), vehicle: saline): 132 % of control
- survivor count (dose: 4.0 mg/kg/injection, schedule: Q04DX003 (ip), vehicle: saline): 7 of 8 and 8 of 8
- survivor count (dose: 8.0 mg/kg/injection, schedule: Q04DX003 (ip), vehicle: saline): 1 of 8
- survivor count (dose: 16.0 mg/kg/injection, schedule: Q04DX003 (ip), vehicle: saline): 0 of 8
- survivor count (dose: 800.0 micrograms/kg/injection, schedule: Q01DX009 (ip), vehicle: saline): 6 of 8

SMILES: O=c1cc(CO)[nH]cc1O
- T/C (dose: 266.0 mg/kg/injection, schedule: Q01DX009 (ip), vehicle: Klucel (hydroxypropylcellulose) (HPC)): 139 % of control
- T/C [6]: 141 % of control
- survivor count (dose: 600.0 mg/kg/injection, schedule: Q01DX009 (ip), vehicle: Klucel (hydroxypropylcellulose) (HPC)): 5 of 5

SMILES: O=[N+]([O-])c1cc2no[n+]([O-])c2cc1N1CCCCC1
- T/C (dose: 15.0 mg/kg/injection, schedule: Q01DX009 (ip), vehicle: saline with Tween-80): 126 % of control
- T/C (dose: 30.0 mg/kg/injection, schedule: Q01DX009 (ip), vehicle: saline with Tween-80): 138 % of control
- survivor count (dose: 60.0 mg/kg/injection, schedule: Q01DX009 (ip), vehicle: saline with Tween-80): 5 of 7

Reference: PubChem BioAssay AID328 (DTP/NCI, 2004)
